Measurements as given in PubChem BioAssay AID270 (DTP/NCI, 2004).
The list is a part of this screen's results and no random one: it gathers tests that were run many times, whatever their T/C, doses with no T/C, and many T/C values between a quarter and a half above the control. Further doses and runs are listed elsewhere. T/C: endpoint of the treated group in % of that of the vehicle group. Schedule codes are those of the source, read here as Q, the interval in days (D) or hours (H), X, the number of doses. Some entries give survivors of the animals treated and no T/C: the source holds a T/C of zero for them, seemingly a mark for toxic or unscored doses. Some doses without a T/C left all or most animals alive at the check, yet need not have been tolerated: the source hardly ever lists a survival T/C far under the control, and the zero likely stands for such cases as well. Survivors were counted at the toxicity check, usually on the fifth day, unless a day is given; later deaths do not show. Some molecules as drawn cover several salts, stereoisomers or complexes of the source; a dose is that of the sample tested. Some entries hold several experiments; the results are listed from low to high. For survival time, this PubChem deposit counts one and a half times the control or more as active, and values a quarter to a half above the control carry no call in these data; other NCI protocols may use other cut-offs. Some T/C values are followed by the survivors on the day toxicity was checked, most often the fifth; where none is given, no animal had died by that day.

Tested on: BDF1 mice, s.c. Lewis lung carcinoma, T/C %
Test: NCI In Vivo Anticancer Drug Screen. Data for tumor model Lewis Lung Carcinoma (subcutaneous) in B6D2F1 (BDF1) mice
Method in brief: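 The value reflects a ratio in which the treated cohort's survival time or tumour size is compared against mice receiving only vehicle.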

[1] = T/C endpoint: median survival time, dose: 0.09 mg/kg/injection, schedule: Q01DX009 (ip), vehicle: DMSO, higher T/C = longer survival
[2] = T/C endpoint: median survival time, dose: 0.18 mg/kg/injection, schedule: Q01DX009 (ip), vehicle: DMSO, higher T/C = longer survival
[3] = T/C endpoint: median survival time, dose: 25.0 mg/kg/injection, schedule: Q01DX009 (ip), vehicle: saline, higher T/C = longer survival
[4] = T/C endpoint: median survival time, dose: 400.0 mg/kg/injection, schedule: Q01DX004 (ip), vehicle: saline, higher T/C = longer survival
[5] = T/C endpoint: median survival time, dose: 1600.0 mg/kg/injection, schedule: Q01DX004 (ip), vehicle: saline, higher T/C = longer survival
[6] = T/C endpoint: mean tumor weight, dose: 400.0 mg/kg/injection, schedule: Q01DX011 (ip), vehicle: saline, higher T/C = larger tumour

CC[CH2][Pb]([Cl])([CH2]CC)[CH2]CC
T/C [1]: 143 % of control
survivor count [1]: 0 of 10
T/C [2]: 148 % of control
survivor count [2]: 0 of 10
survivor count (T/C endpoint: median survival time, dose: 0.37 mg/kg/injection, schedule: Q01DX009 (ip), vehicle: DMSO, higher T/C = longer survival): 0 of 10
survivor count (T/C endpoint: median survival time, dose: 0.75 mg/kg/injection, schedule: Q01DX009 (ip), vehicle: DMSO, higher T/C = longer survival): 0 of 10
survivor count (T/C endpoint: median survival time, dose: 1.5 mg/kg/injection, schedule: Q01DX009 (ip), vehicle: DMSO, higher T/C = longer survival): 0 of 10

CC(=O)CC(C)=O.CC(=O)CC(C)=O.CC(=O)CC(C)=O.[V]
survivor count [3]: 10 of 10

CCn1cnc2c(SC)nc(N)nc21
T/C (T/C endpoint: mean tumor weight, dose: 12.5 mg/kg/injection, schedule: Q01DX011 (ip), vehicle: other, evaluated on day 12, higher T/C = larger tumour): 129 % of control
survivor count (T/C endpoint: mean tumor weight, dose: 25.0 mg/kg/injection, schedule: Q01DX011 (ip), vehicle: other, higher T/C = larger tumour): 3 of 6
survivor count (T/C endpoint: mean tumor weight, dose: 50.0 mg/kg/injection, schedule: Q01DX011 (ip), vehicle: other, higher T/C = larger tumour): 0 of 6

NC(C/[N+]([O-])=N/O)C(=O)O (centres undefined)
survivor count (T/C endpoint: median survival time, dose: 100.0 mg/kg/injection, schedule: Q01DX010 (ip), vehicle: alkali diluted with saline, higher T/C = longer survival): 6 of 10 on day 57
T/C (T/C endpoint: median survival time, dose: 500.0 mg/kg/injection, schedule: Q01DX001 (ip), vehicle: saline, higher T/C = longer survival): 128 % of control

CN(C)c1ccc(C(N)=O)cn1
survivor count (T/C endpoint: mean tumor weight, dose: 12.0 mg/kg/injection, schedule: Q01DX011 (ip), vehicle: saline, higher T/C = larger tumour): 2 of 6

CC(=O)CC(=O)Nc1ccc(Cl)cc1
T/C (T/C endpoint: mean tumor weight, dose: 74.0 mg/kg/injection, schedule: Q01DX011 (ip), vehicle: other, evaluated on day 12, higher T/C = larger tumour): 130 % of control
T/C (T/C endpoint: mean tumor weight, dose: 250.0 mg/kg/injection, schedule: Q01DX011 (ip), vehicle: other, evaluated on day 12, higher T/C = larger tumour): 130 % of control
survivor count (T/C endpoint: mean tumor weight, dose: 1000.0 mg/kg/injection, schedule: Q01DX011 (ip), vehicle: other, higher T/C = larger tumour): 0 of 6

CCS(=O)(=O)Nc1cccc(Nc2c3cccc(C)c3nc3c(C)cccc23)c1OC
survivor count (T/C endpoint: median survival time, dose: 50.0 mg/kg/injection, schedule: Q01DX011 (ip), vehicle: saline with Tween-80, higher T/C = longer survival): 10 of 10
survivor count (T/C endpoint: median survival time, dose: 100.0 mg/kg/injection, schedule: Q01DX011 (ip), vehicle: saline with Tween-80, higher T/C = longer survival): 10 of 10
survivor count (T/C endpoint: median tumor weight (est.), dose: 50.0 mg/kg/injection, schedule: Q01DX011 (ip), vehicle: saline with Tween-80, higher T/C = larger tumour): 1 of 10

Nc1ccc2nc3ccc(N)cc3[n+](-c3ccccc3)c2c1
survivor count (T/C endpoint: median survival time, dose: 1.0 mg/kg/injection, schedule: Q01DX009 (ip), vehicle: saline, higher T/C = longer survival): 10 of 10
survivor count (T/C endpoint: median survival time, dose: 4.0 mg/kg/injection, schedule: Q01DX009 (ip), vehicle: saline, higher T/C = longer survival): 10 of 10
survivor count (T/C endpoint: median survival time, dose: 8.0 mg/kg/injection, schedule: Q01DX009 (ip), vehicle: saline, higher T/C = longer survival): 10 of 10
survivor count (T/C endpoint: median survival time, dose: 16.0 mg/kg/injection, schedule: Q01DX009 (ip), vehicle: saline, higher T/C = longer survival): 10 of 10
survivor count (T/C endpoint: median survival time, dose: 32.0 mg/kg/injection, schedule: Q01DX009 (ip), vehicle: saline, higher T/C = longer survival): 5 of 10

Cc1nc(N)nc(N)c1-c1ccc(Cl)c(Cl)c1
survivor count (T/C endpoint: mean tumor weight, dose: 3.0 mg/kg/injection, schedule: Q01DX011 (ip), vehicle: other, higher T/C = larger tumour): 3 of 6
survivor count (T/C endpoint: mean tumor weight, dose: 9.0 mg/kg/injection, schedule: Q01DX011 (ip), vehicle: other, higher T/C = larger tumour): 2 of 6
survivor count (T/C endpoint: median survival time, dose: 4.0 mg/kg/injection, schedule: Q02DX009 (ip), vehicle: Klucel (hydroxypropylcellulose) (HPC), higher T/C = longer survival): 10 of 10
survivor count (T/C endpoint: median survival time, dose: 6.25 mg/kg/injection, schedule: Q01DX009 (ip), vehicle: saline, higher T/C = longer survival): 10 of 10
survivor count (T/C endpoint: median survival time, dose: 8.0 mg/kg/injection, schedule: Q02DX009 (ip), vehicle: Klucel (hydroxypropylcellulose) (HPC), higher T/C = longer survival): 10 of 10
survivor count (T/C endpoint: median survival time, dose: 12.5 mg/kg/injection, schedule: Q01DX009 (ip), vehicle: saline, higher T/C = longer survival): 10 of 10
survivor count (T/C endpoint: median survival time, dose: 16.0 mg/kg/injection, schedule: Q02DX009 (ip), vehicle: Klucel (hydroxypropylcellulose) (HPC), higher T/C = longer survival): 10 of 10
survivor count [3]: 10 of 10

Nc1ccc(O)cc1
T/C (T/C endpoint: mean tumor weight, dose: 38.0 mg/kg/injection, schedule: Q01DX011 (ip), vehicle: saline, evaluated on day 12, higher T/C = larger tumour): 125 % of control

IP(c1ccccc1)(c1ccccc1)(c1ccccc1)N1C2CCCCC21 (centres undefined)
survivor count (T/C endpoint: median survival time, dose: 0.07 mg/kg/injection, schedule: Q01DX009 (ip), vehicle: Klucel (hydroxypropylcellulose) (HPC), higher T/C = longer survival): 9 of 10
survivor count (T/C endpoint: median survival time, dose: 0.15 mg/kg/injection, schedule: Q01DX009 (ip), vehicle: Klucel (hydroxypropylcellulose) (HPC), higher T/C = longer survival): 10 of 10
survivor count (T/C endpoint: median survival time, dose: 1.2 mg/kg/injection, schedule: Q01DX009 (ip), vehicle: Klucel (hydroxypropylcellulose) (HPC), higher T/C = longer survival): 9 of 10

O=C(CP(=O)(O)O)NC(CC(=O)OCc1ccccc1)C(=O)OCc1ccccc1 (centres undefined)
T/C (T/C endpoint: median survival time, dose: 50.0 mg/kg/injection, schedule: Q01DX004 (ip), vehicle: saline, higher T/C = longer survival): 128 % of control
T/C (T/C endpoint: median survival time, dose: 200.0 mg/kg/injection, schedule: Q01DX004 (ip), vehicle: saline, higher T/C = longer survival): 132 and 139 % of control [7 of 8 alive]
T/C [4]: 139 % of control
survivor count [4]: 5 of 8
survivor count (T/C endpoint: median survival time, dose: 800.0 mg/kg/injection, schedule: Q01DX004 (ip), vehicle: saline, higher T/C = longer survival): 3 of 8 and 5 of 8
T/C [5]: 135 % of control
survivor count [5]: 1 of 8 and 7 of 8

COc1cc(C2c3cc4c(cc3CC3COC(=O)C32)OCO4)cc(OC)c1O (centres undefined)
survivor count (T/C endpoint: median survival time, dose: 4.0 mg/kg/injection, schedule: Q01DX009 (ip), vehicle: saline with Tween-80, higher T/C = longer survival): 10 of 10

C=C(C)C1CC=C(C)CC1 (centres undefined)
survivor count (T/C endpoint: mean tumor weight, dose: 400.0 mg/kg/injection, schedule: Q01DX011 (ip), vehicle: carboxymethylcellulose (CMC), higher T/C = larger tumour): 2 of 6

COC(=O)[C@H]1[C@H]2C[C@@H]3c4[nH]c5cc(OC)ccc5c4CCN3C[C@H]2C[C@@H](OC(=O)c2cc(OC)c(OC)c(OC)c2)[C@@H]1OC
survivor count (T/C endpoint: median survival time, dose: 0.25 mg/kg/injection, schedule: Q01DX009 (ip), vehicle: Klucel (hydroxypropylcellulose) (HPC), higher T/C = longer survival): 10 of 10
T/C (T/C endpoint: median survival time, dose: 1.0 mg/kg/injection, schedule: Q01DX009 (ip), vehicle: Klucel (hydroxypropylcellulose) (HPC), higher T/C = longer survival): 146 % of control
survivor count (T/C endpoint: median survival time, dose: 4.0 mg/kg/injection, schedule: Q01DX009 (ip), vehicle: Klucel (hydroxypropylcellulose) (HPC), higher T/C = longer survival): 10 of 10

O=C(O)c1cc(O)c(O)c(O)c1
T/C (T/C endpoint: mean tumor weight, dose: 100.0 mg/kg/injection, schedule: Q01DX011 (ip), vehicle: saline, evaluated on day 12, higher T/C = larger tumour): 128 % of control

CCC(C)n1ncc2c(N(C)C)ncnc21 (centres undefined)
T/C (T/C endpoint: mean tumor weight, dose: 16.25 mg/kg/injection, schedule: Q01DX011 (ip), vehicle: carboxymethylcellulose (CMC), evaluated on day 12, higher T/C = larger tumour): 132 % of control

C[n+]1cccc(C(=O)O)c1
survivor count [6]: 0 of 6

NC(=O)c1ccc(NC(=O)CCC(=O)Nc2ccc(C(N)=O)cn2)nc1
survivor count (T/C endpoint: mean tumor weight, dose: 5.0 mg/kg/injection, schedule: Q01DX011 (ip), vehicle: carboxymethylcellulose (CMC), higher T/C = larger tumour): 0 of 7
survivor count (T/C endpoint: mean tumor weight, dose: 10.0 mg/kg/injection, schedule: Q01DX011 (ip), vehicle: carboxymethylcellulose (CMC), higher T/C = larger tumour): 0 of 7

NC(=O)N(CCCl)N=O
survivor count (T/C endpoint: mean tumor weight, dose: 5.0 mg/kg/injection, schedule: Q01DX011 (ip), vehicle: saline, higher T/C = larger tumour): 2 of 6
T/C (T/C endpoint: median survival time, dose: 2.0 mg/kg/injection, schedule: Q01DX001 (ip), vehicle: saline + alcohol, higher T/C = longer survival): 135 % of control
T/C (T/C endpoint: median survival time, dose: 4.0 mg/kg/injection, schedule: Q01DX001 (ip), vehicle: saline + alcohol, higher T/C = longer survival): 145 % of control
survivor count (T/C endpoint: median survival time, dose: 8.0 mg/kg/injection, schedule: Q01DX001 (ip), vehicle: saline + alcohol, higher T/C = longer survival): 10 of 10
survivor count (T/C endpoint: median survival time, dose: 16.0 mg/kg/injection, schedule: Q01DX001 (ip), vehicle: saline + alcohol, higher T/C = longer survival): 9 of 10

O=[N+]([O-])c1ccc2c(N=Nc3c(O)ccc4ccccc34)c(O)cc(S(=O)(=O)O)c2c1
survivor count [6]: 0 of 6
survivor count (T/C endpoint: mean tumor weight, dose: 600.0 mg/kg/injection, schedule: Q01DX011 (ip), vehicle: saline, higher T/C = larger tumour): 0 of 6
survivor count (T/C endpoint: median survival time, dose: 400.0 mg/kg/injection, schedule: Q01DX009 (ip), vehicle: saline, higher T/C = longer survival): 5 of 10

C[C@]12CCC(=O)C=C1CC[C@@H]1[C@@H]2[C@@H](O)C[C@@]2(C)[C@H]1CC[C@]2(O)C(=O)COC(=O)CCC(=O)O
survivor count (T/C endpoint: mean tumor weight, dose: 750.0 mg/kg/injection, schedule: Q01DX011 (sc), vehicle: steroid suspending solution, higher T/C = larger tumour): 1 of 6
survivor count (T/C endpoint: mean tumor weight, dose: 1000.0 mg/kg/injection, schedule: Q01DX011 (sc), vehicle: steroid suspending solution, higher T/C = larger tumour): 0 of 6
